Measurements published in patent publication US11541023B2, “Compounds and compositions for the treatment of neurodegenerative and inflammatory diseases” (SORBONNE UNIVERSITE, priority 2018, dated 2023).
At least one structure is not confirmed: it was looked up by name or label, or the drawing left a doubt.

Sequences of proteins named here, by UniProt entry; tags and fusion partners are left off. Residues count along the entry.
UniProt P00747, 97-580 partner limits assumed: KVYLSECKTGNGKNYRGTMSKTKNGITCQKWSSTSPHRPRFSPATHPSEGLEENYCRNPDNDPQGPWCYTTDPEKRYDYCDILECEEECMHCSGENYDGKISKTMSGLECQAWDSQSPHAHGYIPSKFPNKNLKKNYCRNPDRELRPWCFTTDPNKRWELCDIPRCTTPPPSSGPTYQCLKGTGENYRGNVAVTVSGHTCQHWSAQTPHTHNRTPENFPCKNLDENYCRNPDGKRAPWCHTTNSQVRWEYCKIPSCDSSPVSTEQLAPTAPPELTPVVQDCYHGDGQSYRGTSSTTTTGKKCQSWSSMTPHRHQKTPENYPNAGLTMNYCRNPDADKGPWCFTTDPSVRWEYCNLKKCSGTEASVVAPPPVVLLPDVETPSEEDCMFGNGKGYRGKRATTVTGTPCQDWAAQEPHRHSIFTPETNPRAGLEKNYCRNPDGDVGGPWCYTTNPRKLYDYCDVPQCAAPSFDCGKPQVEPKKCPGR
UniProt P00747, 581-810 limits assumed: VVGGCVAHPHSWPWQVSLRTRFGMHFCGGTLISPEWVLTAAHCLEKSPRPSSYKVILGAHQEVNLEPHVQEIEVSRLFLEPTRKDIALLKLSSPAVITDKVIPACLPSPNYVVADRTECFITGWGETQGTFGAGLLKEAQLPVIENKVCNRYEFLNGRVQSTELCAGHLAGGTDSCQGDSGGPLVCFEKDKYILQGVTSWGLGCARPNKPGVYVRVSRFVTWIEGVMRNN

How the values were obtained:
[1] = target: KLK6 (Homo sapiens (Human), UniProt Q92876); test: KLK6 enzymatic inhibition test (fluorogenic/FRET peptide substrates); conditions: for Inhibition type: KLK6, Boc-QAR-AMC, competitive/noncompetitive by Dixon method; for Inhibition type (reversibility): KLK6, dilution method
[2] = target: plasmin (Homo sapiens (Human), UniProt P00747); test: Plasmin enzymatic inhibition test (Boc-QAR-AMC / PAR4 FRET substrate); conditions: for Inhibition type: Boc-QAR-AMC, competitive/noncompetitive by Dixon method; for Inhibition type (reversibility): dilution method
[3] = system: primary culture of rat OPCs; test: OPC differentiation in primary culture (MBP marker); type: cell-based; conditions: 8 μM, four days differentiation
[4] = system: CG4 cell line (rat oligodendrocyte precursor cells), GFP/mCherry; test: Oligodendrocyte differentiation (mCherry labeling); type: cell-based; conditions: 72 h

SMILES | Inhibition type [1] | Inhibition type (reversibility) [1] | Inhibition type [2] | Inhibition type (reversibility) [2] | OPC differentiation (MBP+ cells relative to basal control) [3] | mCherry labeling relative to basal control (differentiation) ([4]; 8 μM, p value=0.01 Mann-Whitney) | mCherry labeling relative to basal control (differentiation) ([4]; regardless of the concentration)
CC(C)c1ccc(C(=O)Nc2ccc(CN)cc2)c(O)c1.Cl [Compound 6, N-(4-(Aminomethyl)phenyl)-4-isopropyl-2-hydroxybenzamide hydrochloride] | Noncompetitive | reversible | Competitive | reversible | – | – | –
Cl.NCc1ccc(NC(=O)c2cc3ccccc3cc2O)cc1 [Compound 3, N-(4-(Aminomethyl)phenyl)-3-hydroxy-2-naphthamide hydrochloride] | – | – | Competitive | reversible | – | – | –
Cc1ccc(C(=O)Nc2ccc(CN)cc2)c(O)c1.Cl [Compound 4, N-(4-(Aminomethyl)phenyl)-4-methyl-2-hydroxybenzamide hydrochloride] | Noncompetitive | reversible | Competitive | reversible | significantly promote OPC differentiation | significant increase in mCherry labeling | –
COc1ccc2c(O)c(C(=O)Nc3ccc(CN)cc3)ccc2c1.Cl [Compound 5, N-(4-(Aminomethyl)phenyl)-6-methoxy-1-hydroxy-2-naphthamide hydrochloride] | – | – | Noncompetitive | reversible | – | – | –
Cl.NCc1ccc(NC(=O)c2ccc3ccccc3c2O)cc1 [Compound 2, N-(4-(Aminomethyl)phenyl)-1-hydroxy-2-naphthamide hydrochloride] | Competitive | reversible | Competitive | reversible | – | – | no modification of the mCherry labeling
